# The full ranking holds about 33,000 sequences; the median of “E-score (-0.5 to 0.5)” is about -0.0034, and the highest 2% start at about 0.25. The list shows a part of the results.
# Target: T1, Yap3 (UniProt P38749)
# T1 sequence: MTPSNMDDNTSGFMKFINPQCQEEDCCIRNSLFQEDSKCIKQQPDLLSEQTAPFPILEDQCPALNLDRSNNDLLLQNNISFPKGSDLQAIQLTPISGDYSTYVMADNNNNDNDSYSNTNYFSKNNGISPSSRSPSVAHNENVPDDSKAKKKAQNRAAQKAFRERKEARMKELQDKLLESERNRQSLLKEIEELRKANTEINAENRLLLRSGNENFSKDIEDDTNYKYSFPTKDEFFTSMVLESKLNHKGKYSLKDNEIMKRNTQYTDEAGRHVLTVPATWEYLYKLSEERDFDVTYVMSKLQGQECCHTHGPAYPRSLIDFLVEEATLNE
# Test: PBM E-score (8-mer binding enrichment) (E-score (-0.5 to 0.5)); higher = stronger / more preferred TF binding
# Settings: protein concentration: 100 nM; construct: GST-full length
# How it was run: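 Full-length yeast transcription factors or their DNA-binding domains, GST-tagged and expressed with PURExpress, were applied at about 100-200 nM to universal all-10-mer Agilent arrays. These arrays had been made double-stranded by primer extension on fresh or once-stripped slides. Detection used fluorescent anti-GST, normalisation used masliner, and E-scores for ungapped eight-base words pooled with reverse complements came from the Universal PBM Analysis Suite.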
row,Sequence,PBM E-score
1,AAATTATC,0.251
2,CGTTTGAC,-0.0311
3,ACAGGCGC,-0.194
4,AGCAGAAG,-0.101
5,GAAGGATA,0.0107
6,ACGCTATA,-0.013
7,ACTGTGTA,0.117
8,ATATTTTG,0.157
9,AGTTACTC,0.0157
10,CCCGTATA,-0.0173
11,ATGTCTCA,0.0777
12,ATATATAA,0.295
13,CCTTTTAG,-0.17
14,AAATTGAC,0.0675
15,AAGCTCTC,-0.156
16,AGTGGGGA,-0.162
17,TCCTACGA,-0.137
18,TTCCCGAA,0.115
19,CCGAATAG,0.0877
20,ACGCAGTG,-0.146
21,ACCCCAAC,0.0185
22,ACGTGGAT,0.175
23,CATCAGTC,-0.0299
24,ACCTAGGC,-0.16
25,GCACGTAC,-0.0761

# A few values from the entries so far.
# PBM E-score, CATCAGTC is entered as -0.0299
# PBM E-score, ATATATAA is entered as 0.295
# PBM E-score, AGTGGGGA is entered as -0.162
# PBM E-score, ACGTGGAT is entered as 0.175
# PBM E-score, CCGAATAG is entered as 0.0877
# PBM E-score, CCTTTTAG is entered as -0.17

# The list continues.

row,Sequence,PBM E-score
1,ACACTTTC,0.0435
2,ATACAAAA,0.284
3,ATGCGAGC,-0.11
4,CCACACTC,0.0283
5,ACTCTGCT,-0.116
6,CATAGGGA,-0.00581
7,CCCCCTCA,-0.287
8,ACAAAGAC,0.216
9,GCTGTGTA,-0.0133
10,CTCTAAGC,0.0497
11,CTCCAGTA,0.133
12,CTATGCAA,0.0817
13,ACAATATA,0.302
14,ACTGCCAT,0.0826
15,TAACCAGA,-0.0142
16,CGCTCCTC,-0.3
17,ACGGTACC,0.0178
18,ATGTACAA,0.0885
19,AATTCCTA,0.186
20,CTAGGCAG,-0.156
21,ACATTATC,0.241
22,CGACCAGC,-0.0662
23,CCACAACA,-0.0955
24,ACACCGGT,-0.0348
25,ACATGGAA,0.11

row,Sequence,PBM E-score
1,GAGTCACA,0.0758
2,GCACATCC,-0.0425
3,CGTTCCGA,0.00542
4,ACCGGGAT,-0.183
5,ACCCTACG,-0.115
6,AGTCATAC,0.00383
7,AGGCTGTA,0.0824
8,ACAAAGAT,0.0828
9,CGTACCCC,0.0512
10,GTCGCAAA,0.0874
11,GGGAGGCA,-0.251
12,ATCCTCTC,-0.0398
13,CACCGGGG,-0.342
14,GATACTGC,0.19
15,CCCTGTAG,-0.136
16,AGACGTCC,0.0554
17,ATCTGAAA,-0.0353
18,ATAGGCCA,-0.109
19,AAAACTCT,-0.168
20,CACTCGCA,0.0389
21,CGGTGGGA,-0.107
22,CCCACAAC,-0.132
23,CTAATGGC,0.0233
24,ATTCACTG,0.0615
25,AGCGTGCA,-0.012

row,Sequence,PBM E-score
1,ACATAGTG,0.0432
2,GACTAACC,-0.0654
3,GCTGCTTA,-0.14
4,CCAATTGG,0.245
5,CCGTTTTA,0.0816
6,AAACCACA,0.129
7,AGAGCTTC,-0.124
8,AGGTCCTG,-0.174
9,CGCTCGAA,-0.122
10,GACAAGTA,-0.00588
11,ACAAACCG,-0.0143
12,GGTGGATA,-0.054
13,CACTCAAC,0.188
14,TAGATAAA,0.157
15,ACGAAACG,0.0929
16,GTATCGTA,0.185
17,TCGACCGA,0.0102
18,ACCACGCC,-0.241
19,GCCTACGA,0.136
20,CGGCCCGA,-0.0391
21,CAACCCCC,-0.372
22,AACGCAAG,-0.04
23,CAACACGA,0.0874
24,CGAATAAG,-0.00825
25,CAAGTCCA,-0.03

row,Sequence,PBM E-score
1,AGTACTGA,-0.0205
2,ATGCTAGC,0.0109
3,ATGGTTTC,0.167
4,CAATTGGA,0.00694
5,ACCGGGCG,-0.278
6,CACATTCA,0.0306
7,AGATCTCG,0.00088
8,CCAAAAAC,0.139
9,AATCAGTC,0.0871
10,ACTATCAG,0.0145
11,CAGACCGC,0.0188
12,ACCATTGA,0.0679
13,AAGCAAGA,0.118
14,TAAGTCAA,0.0697
15,GACAATCC,0.174
16,CTTATAGA,-0.0523
17,CAAACTGG,0.0416
18,GAGGTCCA,-0.245
19,TTGGAAAA,0.0714
20,AGGCAATA,0.0359
21,CTTGGGTC,-0.0649
22,ACGGGGAT,-0.205
23,AACGAATA,0.11
24,CACCCTCG,-0.104
25,GCAGTAGC,-0.246

row,Sequence,PBM E-score
1,ATGAGAAG,0.0776
2,AGGCGCCT,-0.112
3,TCGAGTAA,0.176
4,AGCTGTTG,0.113
5,ACGCGAGC,0.0664
6,CTTGTCAA,-0.0181
7,AATAATAT,0.337
8,AGCCATTC,-0.00907
9,AGGAGAAG,-0.0878
10,AGTACGAC,-0.0619
11,GACATCTA,0.00074
12,CCACATGG,-0.228
13,CACGTGTA,-0.0491
14,CGAGGCCG,-0.226
15,AAGTCTGA,-0.216
16,CAGCCATA,-0.0168
17,GTGTCTCA,-0.0322
18,CACAGAAC,-0.136
19,CTAGGGAC,-0.0709
20,CGTCCTAG,-0.14
21,AAAGACTA,-0.056
22,TATTGTGA,0.106
23,AGCTTCGC,-0.223
24,ACTAGACA,0.0606
25,CGTAGATC,0.0115

# 5 entries picked at random from those above:
row,Sequence,PBM E-score
22,TATTGTGA,0.106
19,CTAGGGAC,-0.0709
1,ATGAGAAG,0.0776
24,ACTAGACA,0.0606
21,AAAGACTA,-0.056

# (next part)

row,Sequence,PBM E-score
1,ATCTAATA,0.191
2,CCCCATCA,-0.111
3,CAGCTATC,-0.126
4,CCGTACGC,0.0362
5,ATGTATGC,0.109
6,ATCCCCAT,-0.0121
7,AAGCCGGT,-0.0593
8,GCGGGAGC,-0.229
9,CAAGGGAG,-0.229
10,CAAAGGTG,-0.0389
11,GGCCAGCA,-0.166
12,GGCAGGCC,-0.291
13,CCCCCCGC,-0.361
14,GCTGTGCA,-0.205
15,CTTTCCTC,-0.0643
16,GCGACCCA,-0.283
17,AATCCTAT,0.228
18,CCAGGTTC,-0.317
19,CCATCAGC,-0.00182
20,CCCAATCC,-0.14
21,GGAGACAA,0.127
22,AGTGGTAC,0.0484

# From the supplement of paper PMC3334620
